{"source": "PubChem BioAssay AID493014", "about": "(National Center for Advancing Translational Sciences (NCATS), 2011)", "note": "The list shows a part of the results. Shown are side measurements of this screen, not its main read-out; they come without a call. Most of these compounds were active or inconclusive in the main read-out, so they are no random draw. Potencies come from curve fits of mixed quality, noted in brackets.", "data": [{"assay": "qHTS Assay to Find Inhibitors of Chronic Active B-Cell Receptor Signaling", "conditions": "ABC-DLBCL IkBa-CBG/CBR reporter, luminescence ratio (green luciferase fused to IkBa over red control in TMD8 lymphoma cells), 4 h; measured here: CBR red luminescence, cell number", "summary_of_the_method": "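TMD8 ABC-DLBCL cells carrying doxycycline-inducible green luciferase fused to IkappaBalpha plus unfused red luciferase were exposed to compounds (up to 46 uM) for 4 hrs at 37C. Activity came from the overlap-corrected green/red luminescence ratio.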", "values": [{"smiles": "O=C(O)/C=C/c1nc(-c2ccccc2)n2ccccc12", "AC50": "13 µM [falling, partial curve, poor fit]"}, {"smiles": "CCCNC(=S)N1CCN(c2nc(C)nc3sc4c(c23)CCCC4)CC1", "AC50": "11.2 µM [falling, single point]"}, {"smiles": "CCOC(=O)CN1C(=O)SC(CC(=O)Nc2nccs2)C1=O", "note": "(stereo not drawn)", "AC50": "14.6 µM [falling, single point]"}, {"smiles": "COc1ccccc1CNC(=O)COC(=O)c1cccc(S(=O)(=O)N2CCOCC2)c1", "AC50": "20.6 µM [rising, partial curve, poor fit]"}, {"smiles": "C=CC[N+]1(CC(=O)NCc2ccc(NC(C)=O)cc2)CCOCC1", "AC50": "3.16 µM [falling, partial curve, poor fit]"}, {"smiles": "N#Cc1cccc(C#N)c1NCC1CCCO1", "note": "(stereo not drawn)", "AC50": "22.4 µM [rising, single point]"}, {"smiles": "CCOc1ccc(OCC(O)CNC2CCN(Cc3ccccc3)CC2)cc1", "note": "(stereo not drawn)", "AC50": "20.6 µM [falling, single point]"}, {"smiles": "N=c1c[n+](N2CCOCC2)[n-]o1", "AC50": "8.91 µM [falling, partial curve, poor fit]"}, {"smiles": "Cc1ccc(O)c(Nc2ncnc3ccccc23)c1", "AC50": "1.12 µM [rising, full curve, poor fit]"}, {"smiles": "COC(=O)C1=C(C)N(c2ccc(F)cc2)/C(=C/c2ccc(O)cc2)C1=O", "AC50": "12.6 µM [falling, partial curve, poor fit]"}, {"smiles": "NS(=O)(=O)c1ccc(NC(=S)Nc2ccc(Br)c(Cl)c2)cc1", "AC50": "8.91 µM [rising, partial curve, poor fit]"}, {"smiles": "CC1(C)SC(=S)N(Cc2ccc3c(c2)OCO3)C1N(O)C(=O)NC1CCCCC1", "note": "(stereo not drawn)", "AC50": "8.91 µM [falling, partial curve]"}, {"smiles": "O=C(N/N=C/c1ccc(F)cc1)c1cccc(NC(=O)c2ccc(F)cc2)c1", "AC50": "17.8 µM [falling, partial curve, poor fit]"}, {"smiles": "Cc1ccc(S(=O)(=O)N2[C@@H](c3ccc(C(C)(C)C)cc3)C(C(=O)O)=CC[C@H]2c2cccs2)cc1", "AC50": "3.26 µM [rising, partial curve, poor fit]"}, {"smiles": "O=C(NCC(c1ccc(F)cc1)N1CCOCC1)c1cc(F)c(F)c(F)c1F", "note": "(stereo not drawn)", "AC50": "12.6 µM [falling, single point]"}, {"smiles": "CCCc1nnc(SCC(=O)N2CCCCC2C)n1CCOC", "note": "(stereo not drawn)", "AC50": "11.2 µM [rising, single point]"}, {"smiles": "Cc1ccc(NS(=O)(=O)c2ccc3c(c2)oc(=O)n3C)cc1C", "AC50": "17.8 µM [falling, single point]"}, {"smiles": "Cc1ccc(-c2cc(C(=O)NCc3ccc4c(c3)OCO4)no2)cc1", "AC50": "0.0326 µM [rising, full curve, poor fit]"}]}]}
